# Taken from: PubChem BioAssay AID1224830 (NIAID, 2016)
# Purpose: 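Genes whose knock-down alters the TNF-alpha reporter response to LPS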 (primary screen)
# Cell system: human THP-1 monocytic leukaemia cells, TNF dual-luciferase reporter clone, PMA-differentiated to macrophage-like cells
# Reagent: siRNA pool against human genes, 50 nM
# Timing: LPS for 4 h, given about 3 days after siRNA transfection
# Conditions: bacterial LPS (TLR4 ligand), 10 ng/ml
# Measurement: 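TNF firefly reporter luminescence divided by renilla, normalised to the plate median, then turned into a robust z-score for each replicate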
# Direction: TNF reporter robust z-score: higher = stronger TNF reporter response to LPS
# Rule for the call: 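Each well counts as active if its z-score is over 2.8 or under -1.5; controls are left without a call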
# The whole screen tested about 18,000 reagents; below is a random part of them. About 2,900 of all reagents (16%) were called active. 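Calls are made per well; low scores hint the gene aids the LPS response, high scores that it dampens it.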 Repeated entries: four replicate wells of each siRNA pool.
gene symbol,TNF reporter robust z-score,Call
URGCP (upregulator of cell proliferation),0.47,inactive
URGCP (upregulator of cell proliferation),1.77,inactive
URGCP (upregulator of cell proliferation),1.18,inactive
URGCP (upregulator of cell proliferation),-1,inactive
ZFYVE9 (zinc finger FYVE-type containing 9),0.98,inactive
ZFYVE9 (zinc finger FYVE-type containing 9),-0.7,inactive
ZFYVE9 (zinc finger FYVE-type containing 9),0.23,inactive
ZFYVE9 (zinc finger FYVE-type containing 9),2.74,inactive
TTC4 (tetratricopeptide repeat domain 4),0.55,inactive
TTC4 (tetratricopeptide repeat domain 4),0.51,inactive
TTC4 (tetratricopeptide repeat domain 4),1.91,inactive
TTC4 (tetratricopeptide repeat domain 4),2.19,inactive
PFDN6 (prefoldin subunit 6),0.42,inactive
PFDN6 (prefoldin subunit 6),0.11,inactive
PFDN6 (prefoldin subunit 6),-0.67,inactive
PFDN6 (prefoldin subunit 6),0.4,inactive
IFNA7 (interferon alpha 7),-0.39,inactive
IFNA7 (interferon alpha 7),-0.6,inactive
IFNA7 (interferon alpha 7),-0.46,inactive
IFNA7 (interferon alpha 7),-0.66,inactive
RPL36A (ribosomal protein L36a),0.8,inactive
RPL36A (ribosomal protein L36a),2.13,inactive
RPL36A (ribosomal protein L36a),0.92,inactive
RPL36A (ribosomal protein L36a),2.16,inactive
OAS3 (2'-5'-oligoadenylate synthetase 3),-0.15,inactive
OAS3 (2'-5'-oligoadenylate synthetase 3),0.73,inactive
OAS3 (2'-5'-oligoadenylate synthetase 3),0.53,inactive
OAS3 (2'-5'-oligoadenylate synthetase 3),-0.41,inactive
HLX (H2.0 like homeobox),0.03,inactive
HLX (H2.0 like homeobox),3.78,active
HLX (H2.0 like homeobox),-0.45,inactive
HLX (H2.0 like homeobox),1.81,inactive
CLDND2 (claudin domain containing 2),-1.47,inactive
CLDND2 (claudin domain containing 2),0.18,inactive
CLDND2 (claudin domain containing 2),-0.01,inactive
CLDND2 (claudin domain containing 2),0.37,inactive
TXNDC11 (thioredoxin domain containing 11),-1.02,inactive
TXNDC11 (thioredoxin domain containing 11),0.74,inactive
TXNDC11 (thioredoxin domain containing 11),-0.87,inactive
TXNDC11 (thioredoxin domain containing 11),-0.63,inactive
"ERV3-1 (endogenous retrovirus group 3 member 1, envelope)",2.04,inactive
"ERV3-1 (endogenous retrovirus group 3 member 1, envelope)",0.57,inactive
"ERV3-1 (endogenous retrovirus group 3 member 1, envelope)",1.91,inactive
"ERV3-1 (endogenous retrovirus group 3 member 1, envelope)",2.11,inactive
UQCC1 (ubiquinol-cytochrome c reductase complex assembly factor 1),-0.16,inactive
UQCC1 (ubiquinol-cytochrome c reductase complex assembly factor 1),-0.3,inactive
UQCC1 (ubiquinol-cytochrome c reductase complex assembly factor 1),-0.96,inactive
UQCC1 (ubiquinol-cytochrome c reductase complex assembly factor 1),0.06,inactive

Laid out differently: 3 of the entries above
{"gene symbol":"ZFYVE9 (zinc finger FYVE-type containing 9)","TNF reporter robust z-score":2.74,"Call":"inactive"}
{"gene symbol":"TTC4 (tetratricopeptide repeat domain 4)","TNF reporter robust z-score":0.55,"Call":"inactive"}
{"gene symbol":"TTC4 (tetratricopeptide repeat domain 4)","TNF reporter robust z-score":0.51,"Call":"inactive"}
